In the series the test system is T1, EWS-FLI1 (in complex with RHA).
T1 construct: gene EWSR1; assayed with full-length N-terminal His-tagged RHA from Sf9 cells; with ATP-dependent RNA helicase A
The series is described as follows: dsRNA strand-separation gel assay, reversal of EWS-FLI1 inhibition of RHA. Type of series: biochemical, Homo sapiens. Conditions: 1 nM RHA, 1 nM EWS-FLI1, 30 uM compound pre-incubated with EWS-FLI1 10 min; pH 7.5, 2 mM MgCl2, 2 mM nucleotide; binding site unknown.

In the case of `COc1ccc(C(=O)CC2(O)C(=O)Nc3c(Cl)ccc(Cl)c32)cc1` (racemic) [YK-4-279], the “% helicase activity restored at 30 uM” value is 80%.

For the molecule `COc1ccc(C(=O)C[C@@]2(O)C(=O)Nc3c(Cl)ccc(Cl)c32)cc1` [(S)-YK-4-279], the “% helicase activity restored at 30 uM” value is 80%.

These data come from article PMC4333382, “RNA helicase A activity is inhibited by oncogenic transcription factor EWS-FLI1” (Nucleic Acids Research, 2015).
